Measurements reported in PubChem BioAssay AID686943 (Drosophila RNAi Screening Center, 2013).
In all, the deposit lists about 23,000 reagents; shown is a random part of those that have a named target and a result. 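Extra replicates exist only for a retested subset of genes; insulin dose and duration not given; both raised and lowered dpERK matter.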 Names joined by + are all predicted targets of the reagent. Further read-outs or replicates are left out here. Not given: the amount of reagent, the time to read-out.

Purpose: 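Fly genes whose loss alters ERK activation after insulin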 (primary screen)
Cell system: Drosophila S2R+ haemocyte-like cells expressing YFP-tagged ERK (Rolled)
Knock-down reagent: long dsRNA against Drosophila genes
Treatment: insulin stimulation versus unstimulated cells; dose and duration not given
Measurement: 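Per-plate z-scores of phospho-ERK immunostaining normalised to YFP-tagged ERK, measured with and without insulin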
Direction: replicate 1, z-score of dpERK with insulin and replicate 2, z-score of dpERK with insulin: higher = more active ERK per ERK-YFP after insulin

gene knocked down	PubChem SID	replicate 1, z-score of dpERK with insulin	replicate 2, z-score of dpERK with insulin
d4	SID104184673	0.45	0.48
d4	SID104202068	-0.15	-0.63
Obp99b	SID104196056	-1.74	-0.55
beta3GalTII	SID104187045	0.4	1.64
Ir75b	SID104189981	-0.02	-0.12
CG42514	SID104190220	-1.01	-0.64
mRpL23	SID104188099	0.79	0.56
amrt	SID104199170	0.07	-0.94
CG10559	SID104194047	-0.05	1.09
CG10918	SID104200264	-0.01	0.42
pie	SID104183382	-0.63	0.69
betaNACtes3	SID104199975	0	0.29
CG7685	SID104196077	-0.03	0.87
shv	SID104180432	1.14	-0.27
shv	SID104201680	-0.38	-1.83
mRpS26	SID104190615	-0.98	-0.38
rdgC	SID104191179	0.73	0.1
l(2)37Bb	SID104181880	-0.1	0.25
mmd	SID104199464	0.2	-2.63
mmd	SID104199465	-0.7	-0.35
mmd	SID104199953	1.01	0.95
CG12964	SID104186058	1.76	-1.4
EMC2B + EMC2A	SID104195033	1.59	0.52
CG34115	SID104183632	0.67	-0.5
Rbp1-like	SID104199620	1.01	0.86
Rbp1-like	SID104201554	-0.04	0.4
Rbp1-like	SID104201649	0.1	1.09
CG11286	SID104194085	0.02	0.23
AsnS	SID104191260	0.5	0.7
tapas	SID104185742	0.27	-0.34
arm	SID104198530	0.46	0.28
PGRP-LC	SID104188772	-0.25	0.05
PGRP-LC	SID104190208	0.77	0.44
PGRP-LC	SID104190209	-0.07	-0.6
Idi	SID104195710	-0.86	0.48
CG4613	SID104190227	0.78	-0.4
EcR	SID104184698	1.23	0.87
EcR	SID104184702	0.38	1.54
Cpr47Ea	SID104187125	0.96	0.11
CG42319	SID104186437	0.11	-0.29
CG42319	SID104186438	0.01	0.48
CG42319	SID104201897	0.35	0.24
Ask1	SID104196581	0.85	0.5
Ask1	SID104201376	1.25	0.8
hzg	SID104190341	-1.05	-2
CG33269	SID104190377	-1.51	-1.77
CG3546	SID104198100	-0.22	-0.09
csul	SID104187391	-0.23	0.38
Dbx	SID104188062	0.07	0.84
Dbx	SID104188063	0.75	1.18
Dbx	SID104188186	1.07	-0.18
Cpr60D	SID104184284	-0.8	-0.33
Dcr-2	SID104186784	0.32	-0.01
CG31638	SID104182061	-2.28	-2.14
CG31638	SID104183051	0.21	-0.18
CG15646	SID104199474	-0.97	-0.26
CG16986	SID104188294	0.89	0.86

7 entries from above, sorted by “replicate 2, z-score of dpERK with insulin”, low to high.
gene knocked down	PubChem SID	replicate 1, z-score of dpERK with insulin	replicate 2, z-score of dpERK with insulin
amrt	SID104199170	0.07	-0.94
CG42514	SID104190220	-1.01	-0.64
betaNACtes3	SID104199975	0	0.29
CG10918	SID104200264	-0.01	0.42
mRpL23	SID104188099	0.79	0.56
pie	SID104183382	-0.63	0.69
CG10559	SID104194047	-0.05	1.09
